Source: PubChem BioAssay AID743266 (National Center for Advancing Translational Sciences (NCATS), 2014)
About 310 (0.076%) of roughly 410,000 compounds were called active. The inconclusive results got no clear call from the source; some entries with a clear call stand among them for comparison. Calls follow the shape of the dose curve; as a rule, active = well fitted activation curve with a large enough effect; inconclusive = small, poorly fitted or top-dose-only effect, or another doubt; inactive = no such curve, though single readings can be large or run the other way. A potency beside an inconclusive call is a rough fit, not a confirmed value.

Protein sequences, listed by entry. Tags and fused reporters are not part of them. Lines headed by an entry give the natural chain unless they say otherwise; changes in a name come on top.
UniProt Q03431: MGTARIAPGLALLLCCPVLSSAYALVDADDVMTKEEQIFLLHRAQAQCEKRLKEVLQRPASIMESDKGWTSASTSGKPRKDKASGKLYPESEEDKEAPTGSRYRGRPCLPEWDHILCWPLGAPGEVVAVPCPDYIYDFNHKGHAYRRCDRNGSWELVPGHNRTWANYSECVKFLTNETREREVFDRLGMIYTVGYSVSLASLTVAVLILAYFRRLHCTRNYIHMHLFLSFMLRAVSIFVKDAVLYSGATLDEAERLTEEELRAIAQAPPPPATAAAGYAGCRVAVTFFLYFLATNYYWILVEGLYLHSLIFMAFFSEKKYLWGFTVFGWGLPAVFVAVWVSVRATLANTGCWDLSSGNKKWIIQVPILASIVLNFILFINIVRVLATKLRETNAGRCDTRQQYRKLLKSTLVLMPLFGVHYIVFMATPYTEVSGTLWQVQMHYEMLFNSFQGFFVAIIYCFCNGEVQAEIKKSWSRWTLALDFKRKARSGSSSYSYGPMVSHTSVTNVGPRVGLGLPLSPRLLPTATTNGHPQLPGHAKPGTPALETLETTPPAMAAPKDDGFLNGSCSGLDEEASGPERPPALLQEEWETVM

Each molecule was assayed against Parathyroid hormone/parathyroid hormone-related peptide receptor (Homo sapiens) (UniProt Q03431) (assay: qHTS for PTHR1 Agonists: Primary Screen). Details: HEK293 GP2 PTHR1 cells, GloSensor cAMP luminescence, 1 h; activation: at 115 µM (top of the series) unless noted; series mostly up to 115 µM.
Outline: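 HEK-293-derived GP2 cells expressing PTHR1 and a GloSensor cAMP reporter, 3,000/well, plated overnight, given luciferin plus IBMX (each 0.5 mM as added) for 1 h at 37 °C, then compound for 1 h at 37 °C. Luminescence was read after 15 min at room temperature.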
Also: nearly all actives have a fitted effect of over 55% in size.
Potency is read from the fitted curve at half-maximal effect.

| Structure (SMILES) | Potency | activation |
| --- | --- | --- |
| O=C(CSc1nc2[nH]ncc2c(=O)n1-c1ccccc1)N1CCCc2ccccc21 | inconclusive: 31.6 µM [activator, single point] |  |
| Oc1ccc(C2C=C(c3ccc(F)cc3)Nc3ncnn32)cc1 (centres undefined) |  | inconclusive: 30.1% [activator] |
| CCOC(=O)c1c(C)oc2nc(C)nc(Nc3cc(C)cc(C)c3)c12 | inconclusive: 126 µM [activator, single point] |  |
| Cc1ccc(NC(=S)NNC(=S)NCc2ccccc2)cc1 | inconclusive: 39.8 µM [activator, single point] |  |
| CO/N=C/NC(=O)c1c(OC)ccnc1Oc1ccc(F)cc1 | inconclusive: 3.16 µM [activator, partial curve, poor fit] |  |
| Cc1ccc(S(=O)(=O)CCc2nnc(NC(=O)c3cnccn3)s2)cc1 | inconclusive: 0.224 µM [activator, full curve, poor fit] |  |
| COc1ccc(NS(=O)(=O)c2ccc(N3CC(O)=C(c4ccccc4)C3=N)cc2)cc1 | inconclusive: 31.6 µM [activator, partial curve, poor fit] |  |
| COc1cccc(CCc2nnc(CCC(=O)N3CCN(Cc4ccccn4)CC3)o2)c1 | inactive |  |
| CC1=C([N+](=O)[O-])C(c2ccc(O)c(O)c2)NC(=O)N1 (centres undefined) | inconclusive: 50.1 µM [activator, partial curve, poor fit] |  |
| CC(=O)Nc1cc2c(nc1C)nc(C)n2Cc1ccc(Br)cc1 | inactive |  |
| CCC(=O)Nc1cc(C)c(OC)c(C)c1 | inconclusive: 70.8 µM [activator, partial curve, poor fit] |  |
| CCCNc1nc(-c2cc(-c3ccc(Cl)cc3)on2)cc(C(C)C)n1 | inconclusive: 89.1 µM [activator, partial curve, poor fit] |  |
| CN1CCCC1CCOC(C)(c1ccccc1)c1ccc(Cl)cc1 (centres undefined) | inactive |  |
| Cc1ccc(Cn2c(C3CCCN3c3nc(-c4cc(Cl)c(N)c(Cl)c4)cs3)nc3cc(C(=O)NCCCO)ccc32)cc1 (centres undefined) | inactive |  |
| CN(C)c1ccc(-c2[nH][nH]c(=O)c2NC(=O)c2ccc3ccccc3n2)cc1 | inactive |  |
| Cc1cn2c(=O)c(S(=O)(=O)Nc3ccc(N4CCOCC4)cc3)c(C)nc2s1 |  | inconclusive: 44% [activator] |
| c1cc(-c2noc(CC3CCCCC3)n2)ccn1 | inactive |  |
| CC(C)(C)c1n[nH]c(=S)n(N)c1=O |  | inconclusive: 325% [activator] [at 57.5 µM] |
| CC(=O)Nc1ccc(NC(=O)C(c2ccccc2)N2Cc3ccccc3C2=O)cc1 (centres undefined) | inconclusive: 112 µM [activator, single point] |  |

Three structures out of the list, arranged by molar mass, ascending.

| Structure (SMILES) | Potency | activation |
| --- | --- | --- |
| c1cc(-c2noc(CC3CCCCC3)n2)ccn1 | inactive |  |
| Cc1ccc(S(=O)(=O)CCc2nnc(NC(=O)c3cnccn3)s2)cc1 | inconclusive: 0.224 µM [activator, full curve, poor fit] |  |
| CC(=O)Nc1ccc(NC(=O)C(c2ccccc2)N2Cc3ccccc3C2=O)cc1 (centres undefined) | inconclusive: 112 µM [activator, single point] |  |
